Assay results as given in PubChem BioAssay AID504834 (National Center for Advancing Translational Sciences (NCATS), 2011).
The campaign covered roughly 320,000 compounds. About 22,000 (6.9%) were called active. The shares of active, inactive and inconclusive entries below differ from those in the screen. Calls follow the shape of the dose curve; as a rule, active = well fitted inhibition curve with a large enough effect; inconclusive = small, poorly fitted or top-dose-only effect, or another doubt; inactive = no such curve, though single readings can be large or run the other way. Potencies beside an inconclusive call are fits to weak or partial responses and may not hold up.

assay: Primary qHTS for delayed death inhibitors of the malarial parasite plastid, 96 hour incubation; settings: P. falciparum luciferase reporter growth; series mostly up to 28.7 µM
In short: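 Plates of compound plus infected erythrocytes (2% hematocrit, 0.05% parasitemia final) incubate 96 hours, 37 C, 5% CO2. Detection reagent added; reduced luminescence from the parasites' luciferase reporter flags inhibition.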
Potency is read from the fitted curve at half-maximal effect.

Question: With `CCOC(=O)c1ccc(NC(=O)Nc2cccc(C)n2)cc1` as the compound, how does the Potency read?
Answer: The Potency was “inactive”.

Question: With `CC(C)(C)c1nc2sc3c(c2c(=O)o1)CCCC3` as the compound, how does the Potency read?
Answer: The Potency was “inactive”.

Question: With `COc1cc2c(cc1OC)C(C)N(C(=O)c1ccc(Cl)c(S(=O)(=O)N3CCCCC3)c1)CC2` (configuration not stated) as the compound, how does the Potency read?
Answer: Its Potency is inconclusive: 5.22 µM [inhibitor, partial curve].

Question: Which Potency does the source give for `Cc1ccc(CCN2CC(C(=O)NCCc3ccccc3)CC2=O)cc1` (configuration not stated) here?
Answer: Its Potency is “inactive”.

Question: For `CC1CN(C(=O)c2cccc(C(=O)N3CC(C)OC(C)C3)c2)CC(C)O1` (configuration not stated), which Potency is on record?
Answer: Its Potency is active: 14.7 µM.

Question: Which Potency does the source give for `CCN(Cc1ccncc1)C(=S)Nc1ccccc1` here?
Answer: Its Potency is active: 2.94 µM.

Question: With `CCC[C@@H](O)c1cc2cc(OC)c(OC)cc2c(=O)o1` as the compound, how does the Potency read?
Answer: Its Potency is active: 2.62 µM.

Question: Which Potency does the source give for `CCC(=O)Oc1ccc2c(c1)OC1(OC(C)=O)OC(C)CC1=C2C` (configuration not stated) here?
Answer: Its Potency is inconclusive: 18.5 µM [inhibitor, single point].

Question: With `COC(=O)c1ccc(NC(=O)CSc2nc3cccnc3n2C)cc1` as the compound, how does the Potency read?
Answer: The Potency was “inactive”.

Question: Which Potency does the source give for `O=[N+]([O-])c1ccc(C2=Nn3c(Cn4nnc5ccccc54)nnc3SC2)cc1` here?
Answer: Its Potency is inconclusive: 8.28 µM [inhibitor, partial curve].

Question: Which Potency does the source give for `N#Cc1c(NCCCO)nc(-c2ccco2)c2c1CCCC2` here?
Answer: Its Potency is inconclusive: 9.28 µM [inhibitor, partial curve, poor fit].

Question: Which Potency does the source give for `Cc1ccc(SCCC(=O)N(C)CC(=O)Nc2c(C)cccc2C)cc1` here?
Answer: The Potency was inconclusive: 18.5 µM [inhibitor, single point].

Question: Which Potency does the source give for `COC(=O)CSc1ccc(-c2nc3ccc(C)cc3[nH]2)cn1` here?
Answer: The Potency was “inactive”.

Question: Which Potency does the source give for `Cc1ccc(NC(=O)CN(C)CC(=O)Nc2c(C)cccc2C)c(Br)c1` here?
Answer: Its Potency is inconclusive: 0.586 µM [inhibitor, full curve, poor fit].

Question: With `Cc1nn(-c2ccccc2)c(N2CCCC2)c1/C=N/NC(=O)c1cc2ccccc2cc1O` as the compound, how does the Potency read?
Answer: The Potency was inconclusive: 10.4 µM [inhibitor, partial curve, poor fit].

Question: For `Cc1ccc(C)c(C2=CSC3=NCCN23)c1`, which Potency is on record?
Answer: Its Potency is “inactive”.

Question: With `Cc1ccc(NC(=O)CCC(=O)c2cc(C)sc2C)nc1` as the compound, how does the Potency read?
Answer: Its Potency is “inactive”.

Question: With `O=C1CCCCc2sc(Br)c([N+](=O)[O-])c2N1` as the compound, how does the Potency read?
Answer: Its Potency is “inactive”.

Question: With `CCCCOc1ccc(CNC(=S)N/N=C/c2ccc(OC)c(OC)c2)cc1` as the compound, how does the Potency read?
Answer: The Potency was active: 4.65 µM.

Question: Which Potency does the source give for `CCc1ccc(NC(=O)NNC(=O)CCc2ccccc2)cc1` here?
Answer: Its Potency is inconclusive: 18.5 µM [inhibitor, single point].

Question: For `COC(c1ccccc1)c1c(-c2ccccc2)nn(C)c1Cl` (configuration not stated), which Potency is on record?
Answer: The Potency was active: 11.7 µM.

Question: With `C/C(=N/NS(=O)(=O)c1ccccc1)c1ccc(NC(=O)C2CC2)cc1` as the compound, how does the Potency read?
Answer: The Potency was inconclusive: 0.738 µM [inhibitor, partial curve, poor fit].

Question: Which Potency does the source give for `CN(C)S(=O)(=O)N1CCc2ccc(NC(=O)C3CCCO3)cc2C1` (configuration not stated) here?
Answer: Its Potency is inconclusive: 9.28 µM [inhibitor, partial curve, poor fit].

Question: For `CCNC(=S)Nc1ccc(-c2nc3ccccc3[nH]2)cc1`, which Potency is on record?
Answer: The Potency was inconclusive: 16.5 µM [inhibitor, single point].

Question: Which Potency does the source give for `Cc1ccccc1CSCCNC(=O)CSCc1ccc([N+](=O)[O-])cc1` here?
Answer: Its Potency is inconclusive: 16.5 µM [inhibitor, single point].

Question: For `Cc1cccc(OCCCCCN2CCOCC2)c1`, which Potency is on record?
Answer: Its Potency is inconclusive: 0.0928 µM [inhibitor, full curve, poor fit].

Question: With `CCOC(=O)c1c(C)[nH]c(C(=O)COC(=O)c2ccc(O)cc2)c1C` as the compound, how does the Potency read?
Answer: The Potency was inconclusive: 18.5 µM [inhibitor, single point].

Question: For `CCc1ccc(/C(C)=N/NC(=O)c2ccc(-n3cnnn3)cc2)cc1`, which Potency is on record?
Answer: Its Potency is inconclusive: 4.15 µM [inhibitor, partial curve, poor fit].

Question: For `CSc1cccc(-c2nnc(NC(=O)c3cccc(N4C(=O)CCC4=O)c3)o2)c1`, which Potency is on record?
Answer: Its Potency is “inactive”.

Question: For `CCN(CC)CCCNc1oc(-c2ccccc2[N+](=O)[O-])nc1C#N`, which Potency is on record?
Answer: Its Potency is active: 2.62 µM.

Question: Which Potency does the source give for `CCN1CC(CN(C)Cc2nc(Cc3ccccc3)no2)CC1=O` (configuration not stated) here?
Answer: The Potency was inconclusive: 18.5 µM [inhibitor, single point].

Question: With `Cc1ccc2cc(CN(CC(C)C)S(=O)(=O)c3cccc4nonc34)c(=O)[nH]c2c1` as the compound, how does the Potency read?
Answer: The Potency was active: 10.4 µM.

Question: For `Cn1cc(CCC(=O)N2CCCC(C(=O)c3cccc4ccccc34)C2)cn1` (configuration not stated), which Potency is on record?
Answer: The Potency was “inactive”.

Question: For `O=C(O)CC(NC(=O)C12CC3CC(CC(C3)C1)C2)c1cc([N+](=O)[O-])ccc1Cl` (configuration not stated), which Potency is on record?
Answer: Its Potency is inconclusive: 13.1 µM [inhibitor, single point].

Question: Which Potency does the source give for `CCOc1ccc2ncc(S(=O)(=O)c3ccccc3)c(N3CCC4(CC3)OCCO4)c2c1` here?
Answer: Its Potency is active: 10.4 µM.

Question: With `O=c1cc(-c2ccc(O)cc2)oc2c1ccc1ccccc12` as the compound, how does the Potency read?
Answer: The Potency was inconclusive: 2.62 µM [inhibitor, partial curve].

Question: With `CCCC1C(=O)Nc2ccccc2N1C(=O)c1ccc(C(C)(C)C)cc1` (configuration not stated) as the compound, how does the Potency read?
Answer: Its Potency is active: 9.28 µM.

Question: With `C/C(=N\NC(=O)c1c[nH]c2ccccc12)c1ccc(C)o1` as the compound, how does the Potency read?
Answer: Its Potency is active: 0.928 µM.

Question: For `S=C1NC=NC2N=CNC12` (configuration not stated), which Potency is on record?
Answer: The Potency was inconclusive: 12 µM [inhibitor, single point].

Question: Which Potency does the source give for `O=[N+]([O-])c1cc(S(=O)(=O)N2CCCCC2)ccc1NCc1cccc(Cl)c1` here?
Answer: Its Potency is inconclusive: 10.4 µM [inhibitor, single point].

Question: With `OCCC1CN(Cc2cccc(-n3cccn3)c2)CCN1Cc1ccccc1` (configuration not stated) as the compound, how does the Potency read?
Answer: Its Potency is inconclusive: 18.5 µM [inhibitor, single point].

Question: For `Clc1ccc2ncc(-c3nnnn3-c3ccccc3)c(-c3ccccc3)c2c1`, which Potency is on record?
Answer: Its Potency is inconclusive: 6.57 µM [inhibitor, partial curve].

Question: With `N#C/C(=C\c1cn(Cc2ccccc2C#N)c2ccccc12)C(=O)NCc1cccs1` as the compound, how does the Potency read?
Answer: Its Potency is inconclusive: 1.04 µM [inhibitor, partial curve, poor fit].

Question: With `CCCN(CCC)C(=S)NC(=O)c1ccc(-c2ccccc2)cc1` as the compound, how does the Potency read?
Answer: Its Potency is inconclusive: 18.5 µM [inhibitor, single point].

Question: With `O=C(CSc1ccccc1)N1CCCC(Nc2ccccc2)C1` (configuration not stated) as the compound, how does the Potency read?
Answer: The Potency was “inactive”.

Question: For `Cc1ccc(C(=O)NCC(=O)N/N=C/c2cccs2)cc1[N+](=O)[O-]`, which Potency is on record?
Answer: The Potency was inconclusive: 0.0928 µM [inhibitor, full curve, poor fit].

Question: With `OC(CN1CC=C(/C=C/c2ccc(Br)cc2)CC1)c1ccccc1` (configuration not stated) as the compound, how does the Potency read?
Answer: Its Potency is “inactive”.
